# From publication PMC11492288
# Target: T1, NLRP10-FLAG (human) (UniProt Q86W26)
# T1 sequence: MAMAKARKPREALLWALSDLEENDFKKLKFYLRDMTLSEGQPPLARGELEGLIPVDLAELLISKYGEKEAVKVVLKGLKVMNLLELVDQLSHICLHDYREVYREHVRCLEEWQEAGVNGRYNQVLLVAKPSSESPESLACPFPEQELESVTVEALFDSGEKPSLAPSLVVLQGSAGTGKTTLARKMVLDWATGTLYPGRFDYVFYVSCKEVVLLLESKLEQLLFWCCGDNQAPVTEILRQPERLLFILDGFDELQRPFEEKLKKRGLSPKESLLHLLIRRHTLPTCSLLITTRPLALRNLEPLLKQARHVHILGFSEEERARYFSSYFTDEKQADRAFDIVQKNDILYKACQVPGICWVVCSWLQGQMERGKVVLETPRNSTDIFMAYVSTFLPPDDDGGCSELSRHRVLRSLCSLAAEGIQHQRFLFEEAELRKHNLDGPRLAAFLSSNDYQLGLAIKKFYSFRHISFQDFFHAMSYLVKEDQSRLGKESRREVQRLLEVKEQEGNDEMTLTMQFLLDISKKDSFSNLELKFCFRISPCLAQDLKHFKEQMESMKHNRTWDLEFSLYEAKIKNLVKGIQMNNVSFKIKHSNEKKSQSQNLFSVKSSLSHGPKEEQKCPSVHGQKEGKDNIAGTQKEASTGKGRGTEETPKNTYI
# Experiment: co-IP; NLRP10-FLAG co-transfected with caspase-HA constructs in 293T cells; IP lysis/wash buffer, 1 mg total lysate; pulled down with anti-FLAG resin, eluted with FLAG peptide; Western blot
row,Substance,binding
1,pro-domain of caspase-8 consisting of two tandem death-effector domains (tDEDs) (domain or fragment),binds
2,catalytic domain of caspase-1 (domain or fragment),binds

# No constants are given. Whether binding was seen depends on the method and setting. In cells and extracts the contact can be indirect. Binding calls can cover weak binding; strength is not graded here. Tags and fused reporters may be left off the sequences shown.
